# Data reported in the supplement of paper PMC12873370.
# “And” between values parts separate entries of the source, which are not always exact repeats. Equal values may be shown once. The list shows a part of the results. Single values are uncertain, as repeats are few or missing.
# Legend:
# [1] = system: MEPP (mouse ovarian epithelium Trp53/Pten KO); test: cell viability relative to untreated (fraction); higher = less growth inhibition; conditions: 5 µM; 3 days
# [2] = system: PREPP (mouse prostate epithelium Trp53/Pten KO); test: as above; conditions: 5 µM; 3 days
Structure (SMILES),cell viability [1],cell viability [2]
C=C1CC[C@H](O)C/C1=C/C=C1\CCC[C@]2(C)[C@@H]([C@H](C)CCCC(C)C)CC[C@@H]12,1.07,0.948
CCCCCCCCCCCCCCCC(=O)OC,1.2,0.879
C[C@@H](O)[C@H]1C(=O)N2C(C(=O)O)=C(SCCNC=N)C[C@H]12,1.09,1.13
CCCC(=O)c1c(O)c(Cc2c(O)c(Cc3c(O)c(C)c(OC)c(C(=O)CCC)c3O)c(O)c(C(=O)[C@@H](C)CC)c2O)c(O)c(C)c1OC,0.911,1.46
CC(=O)OCC1=C(C(=O)O)N2C(=O)[C@@H](NC(=O)Cc3cccs3)[C@H]2SC1,0.917,1.13
Cc1c(-c2ccccc2)oc2c(C(=O)OCCN3CCCCC3)cccc2c1=O,0.735,0.961
COc1cc2c(=O)c(-c3ccc(O)cc3)coc2cc1O[C@@H]1O[C@H](CO)[C@@H](O)[C@H](O)[C@H]1O,0.959,1.14
C[C@]1(OC(=O)/C=C/c2ccccc2)C[C@@H](O)[C@]2(O)C=CO[C@@H](O[C@@H]3O[C@H](CO)[C@@H](O)[C@H](O)[C@H]3O)[C@@H]21,1.32,0.882
CC1=CC(=O)C(C(C)C)=CC1=O,1.02,0.911
CC1(C)CCC2=C(O1)c1ccccc1C(=O)C2=O,0.275,0.433
NC(=O)NCCCC[C@H](N)C(=O)O,1.01,0.992
COc1ccccc1C(=O)O,0.895,0.975
OC[C@H](O)C(O)[C@@H](O)CO,0.798,0.981
Nc1ncnc2c1ncn2C1CC(O)C(COP(=O)(O)O)O1 (stereo not drawn),0.881,1.02
CC(=O)OCc1ccccc1,1.06,0.89
CC(C)(O)[C@H]1CC[C@@](C)([C@H]2[C@@H](O)C[C@@]3(C)[C@@H]4C[C@H](O[C@@H]5O[C@H](CO)[C@@H](O)[C@H](O)[C@H]5O)[C@H]5C(C)(C)[C@@H](O[C@@H]6OC[C@@H](O)[C@H](O)[C@H]6O)CC[C@@]56C[C@@]46CC[C@]23C)O1,0.99,0.783
CC1(C)S[C@@H]2[C@H](NC(=O)C(C(=O)O)c3ccccc3)C(=O)N2[C@H]1C(=O)O (stereo partly drawn),1.03,0.87
COc1nc2ccc(Br)cc2cc1[C@@H](c1ccccc1)[C@@](O)(CCN(C)C)c1cccc2ccccc12,0.78,0.863
CCCCCCCC/C=C/CCCCCCCC(=O)O,0.95,0.885
COC(=O)c1ccc(O)cc1,1.07,0.954
COc1cc(/C=C\C(=O)O)cc(OC)c1O,0.87,1.09

# An excerpt from above in order of length of the SMILES, rising:
Structure (SMILES),cell viability [1],cell viability [2]
CCCCCCCC/C=C/CCCCCCCC(=O)O,0.95,0.885
CC1(C)S[C@@H]2[C@H](NC(=O)C(C(=O)O)c3ccccc3)C(=O)N2[C@H]1C(=O)O (stereo partly drawn),1.03,0.87
CC(C)(O)[C@H]1CC[C@@](C)([C@H]2[C@@H](O)C[C@@]3(C)[C@@H]4C[C@H](O[C@@H]5O[C@H](CO)[C@@H](O)[C@H](O)[C@H]5O)[C@H]5C(C)(C)[C@@H](O[C@@H]6OC[C@@H](O)[C@H](O)[C@H]6O)CC[C@@]56C[C@@]46CC[C@]23C)O1,0.99,0.783

# (continued)

Structure (SMILES),cell viability [1],cell viability [2]
CC1(C)S[C@@H]2[C@H](NC(=O)[C@H](NC(=O)N3CCN(S(C)(=O)=O)C3=O)c3ccccc3)C(=O)N2[C@H]1C(=O)O,1.12,0.919
CC(=O)NC[C@H]1CN(c2ccc(N3CCOCC3)c(F)c2)C(=O)O1,1.14,0.98
C=C(C)[C@@H]1CC[C@]2(C=O)CC[C@]3(C)[C@H](CC[C@@H]4[C@@]5(C)CC[C@H](O)C(C)(C)[C@@H]5CC[C@]43C)[C@@H]12,1.05,1.02
O[C@H]1[C@H](O)[C@@H](O)[C@H](O)[C@@H](O)[C@H]1O,0.799,0.913
CCCC(N)C(=O)O (stereo not drawn),1.02,0.982
NC[C@H]1O[C@H](O[C@H]2[C@H](O[C@@H]3O[C@H](CO)[C@@H](O)[C@H]3O)[C@@H](O)[C@H](N)C[C@@H]2N)[C@H](N)[C@@H](O)[C@@H]1O,0.944,0.822
Cc1cn(C2OC(CO)C(O)C2O)c(=O)[nH]c1=O (stereo not drawn),1.23,0.949
CC(C)N1CCN(c2ccc(OCC3COC(Cn4cncn4)(c4ccc(Cl)cc4Cl)O3)cc2)CC1 (stereo not drawn),0.876,0.884
CC(C)=CCC/C(C)=C/CC/C(C)=C/CO,0.862,0.886
N=C(N)NCCN1CCCCCCC1,1.12,1.04
CC[C@H](N)C(=O)O,0.895,1.05
O=C(/C=C/c1ccc(O)cc1)c1ccc(O)cc1O,2.07,0.879
CO/N=C(\C(=O)N[C@@H]1C(=O)N2C(C(=O)OCOC(=O)C(C)(C)C)=C(/C=C\c3scnc3C)CS[C@H]12)c1csc(N)n1,1.01,0.909
NS(=O)(=O)c1cc(C(=O)O)c(NCc2ccco2)cc1Cl,1.09,0.922
OCCc1ccc(O)cc1,1.02,0.821
Nc1ccn(C2OC(COP(=O)(O)OP(=O)(O)OP(=O)(O)O)C(O)C2O)c(=O)n1 (stereo not drawn),1.27,0.823
O=C(O)CCNC(=O)c1ccccc1,1.18,0.99
O=C1C[C@@H](c2ccc(O[C@@H]3O[C@H](CO)[C@@H](O)[C@H](O)[C@H]3O)cc2)Oc2cc(O)ccc21,1.07,1.23
C[C@H]1[C@H](OC(=O)CCC(=O)O)O[C@@H]2O[C@@]3(C)CC[C@H]4[C@H](C)CC[C@@H]1[C@@]24OO3,0.562,0.785
NC(=O)c1ccc([N+](=O)[O-])cc1Cl,0.838,0.905
NOCC(=O)O,1.03,1.05

Structure (SMILES),cell viability [1],cell viability [2]
C=C1CCC[C@]2(C)C[C@@H]3OC(=O)C(C)=C3C[C@@H]12,1.13,0.946
O=C(O)Cc1c[nH]c2ccc(O)cc12,1.1,1.06
Cn1ccc(=O)n(C)c1=O,0.86,1.15
CCN[C@@H]1C[C@H](N)[C@@H](O[C@H]2OC(CN)=CC[C@H]2N)[C@H](O)[C@H]1O[C@H]1OC[C@](C)(O)[C@H](NC)[C@H]1O,1.35,0.919
CN(C)[C@@H]1C(O)=C(C(N)=O)C(=O)[C@@]2(O)C(O)=C3C(=O)c4c(O)cccc4[C@@](C)(O)[C@H]3C[C@@H]12,1.09 and 0.802,0.974 and 1.03
Cc1c2oc3c(C)ccc(C(=O)N[C@@H]4C(=O)N[C@H](C(C)C)C(=O)N5CCC[C@H]5C(=O)N(C)CC(=O)N(C)[C@@H](C(C)C)C(=O)O[C@@H]4C)c3nc-2c(C(=O)N[C@@H]2C(=O)N[C@H](C(C)C)C(=O)N3CCC[C@H]3C(=O)N(C)CC(=O)N(C)[C@@H](C(C)C)C(=O)O[C@@H]2C)c(N)c1=O,0.547,0.33
CC1=CC(=O)CC(C)(C)C1=O,0.941,0.943
O=C(O)CCc1ccc(O)cc1,1.52,0.977
CO/N=C(\C(=O)N[C@@H]1C(=O)N2C(C(=O)[O-])=C(C[N+]3(C)CCCC3)CS[C@H]12)c1csc(N)n1,0.784,0.967
COc1cc(/C=C/C(=O)O)cc(OC)c1OC,1.03,1.03
COc1cc2c(c(OC)c1OC)-c1c(cc3c(c1OC)OCO3)CC(C)C(C)C2 (stereo not drawn),1.15,0.946
O=C(O)Cc1c[nH]c2ccccc12,0.862,0.888
C[n+]1cccc(C(=O)[O-])c1,1.32 and 1.18,0.867 and 1.29
c1coc(CNc2ncnc3[nH]cnc23)c1,1.12,0.934
COC(=O)Nc1nc2cc(C(=O)c3cccs3)ccc2[nH]1,0.675,0.789
C[C@@H]1O[C@@H]1P(=O)(O)O,1.07,0.886
CC(C)=CCC/C(C)=C/CC/C(C)=C/CC/C(C)=C/CC1=C(C)C(=O)c2ccccc2C1=O,1.12,0.852
NCC[C@H](O)C(=O)N[C@@H]1C[C@H](N)[C@@H](O[C@H]2O[C@H](CN)[C@@H](O)[C@H](O)[C@H]2O)[C@H](O)[C@H]1O[C@H]1O[C@H](CO)[C@@H](O)[C@H](N)[C@H]1O,1.18,1.07
O=c1cccc[nH]1,0.987,0.996
COc1cc(CNC(=O)CCCC/C=C/C(C)C)ccc1O,0.764,1.02
COC(=O)c1ccco1,0.952,0.997

Structure (SMILES),cell viability [1],cell viability [2]
CC[C@H](C)C(=O)O[C@H]1C[C@@H](C)C=C2C=C[C@H](C)[C@H](CC[C@@H]3C[C@@H](O)CC(=O)O3)[C@H]21,0.917,0.64
Nc1nccc(=O)[nH]1,0.914,1
OC[C@@H]1OC(O)[C@@H](O)[C@H](O)[C@H]1O (stereo partly drawn),1.01,0.88
CC(=O)C(=O)O,1.3,0.983
O=CC(O)C(O)C(O)CO (stereo not drawn),1.06,0.912
Cc1cc(=O)oc2cc(O)ccc12,1.04,0.805
Cc1ccn[nH]1,0.956,1.11
C[C@@H]1[C@H](O)[C@@H](C)/C=C/C=C/C=C/C=C/C=C/C=C/C=C/[C@H](O[C@@H]2O[C@H](C)[C@@H](O)[C@H](N)[C@@H]2O)C[C@@H]2O[C@](O)(C[C@@H](O)C[C@@H](O)[C@H](O)CC[C@@H](O)C[C@@H](O)CC(=O)O[C@H]1C)C[C@H](O)[C@H]2C(=O)O,1.1,0.92
COc1ccc([C@@H]2OC[C@H]3[C@@H]2CO[C@@H]3c2ccc3c(c2)OCO3)cc1OC,1.14,0.854
O=C(Oc1cc(S(=O)(=O)c2ccccc2)ccc1[N+](=O)[O-])c1ccc(Cl)cc1,0.818,1.07
CCCCCCCCCCCCCCCCC(=O)O,1.01,0.987
OC1COC(O)C(O)C1O (stereo not drawn),1.21,0.986
CC(=O)N[C@@H](CS)C(=O)O,1.03,0.852
O=c1[nH]cnc2c1ncn2[C@@H]1O[C@H](CO)[C@@H](O)[C@H]1O,0.85,1.01
O=C(O)c1c(O)cccc1O,1.23,0.971
Nc1ccc(O)cc1,1.2,0.927
Oc1ccc(OC2CCCCO2)cc1 (stereo not drawn),1.07,0.902
C=C[C@H]1CN2CC[C@H]1C[C@@H]2[C@@H](O)c1ccnc2ccc(OC)cc12,0.837,0.896
O=[N+]([O-])c1cn2c(n1)OC[C@@H](OCc1ccc(OC(F)(F)F)cc1)C2,1.14,0.738
O=C(/C=C/c1ccc(O)c(O)c1)O[C@@H]1CC(O)(C(=O)O)C[C@@H](OC(=O)/C=C/c2ccc(O)c(O)c2)C1O (stereo partly drawn),0.924,0.884
O=C(/C=C/c1ccc(O)c(O)c1/C=C/c1ccc(O)c(O)c1)O[C@H](Cc1ccc(O)c(O)c1)C(=O)O,1.39,1.23
